# From patent US20190111080A1 (PRECIGEN, published 2019)
# Sequences of proteins named here, by UniProt entry; tags and fusion partners are left off. Residues count along the entry.
# UniProt P20138, 18-259: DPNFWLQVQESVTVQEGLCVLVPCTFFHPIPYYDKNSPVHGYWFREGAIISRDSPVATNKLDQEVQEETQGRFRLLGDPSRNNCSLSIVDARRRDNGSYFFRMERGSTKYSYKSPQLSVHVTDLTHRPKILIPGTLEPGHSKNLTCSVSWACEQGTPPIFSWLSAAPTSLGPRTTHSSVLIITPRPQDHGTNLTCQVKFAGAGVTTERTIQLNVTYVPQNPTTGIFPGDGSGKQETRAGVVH
# Residue numbers refer to the chain shown, from its start.
# B1: CD33-specific chimeric antigen receptor with CD8α hinge (CD8 1X) spacer (receptor)
# chain: DIQMTQSPSSLSASVGDRVTITCRASESVDNYGISFMNWFQQKPGKAPKLLIYAASNQGSGVPSRFSGSGSGTDFTLTISSLQPDDFATYYCQQSKEVPWTFGQGTKVEIKGGGGSGGGGSGGGGSQVQLVQSGAEVKKPGSSVKVSCKASGYTFTDYNMHWVRQAPGQGLEWIGYIYPYNGGTGYNQKFKSKATITADESTNTAYMELSSLRSEDTAVYYCARGRPAMDYWGQGTLVTVSSKPTTTPAPRPPTPAPTIASQPLSLRPEACRPAAGGAVHTRGLDFACDIYIWAPLAGTCGVLLLSLVITLYCNHRNKRGRKKLLYIFKQPFMRPVQTTQEEDGCSCRFPEEEEGGCELRVKFSRSADAPAYQQGQNQLYNELNLGRREEYDVLDKRRGRDPEMGGKPRRKNPQEGLYNELQKDKMAEAYSEIGMKGERRRGKGHDGLYQGLSTATKDTYDALHMQALPPR
# notes: also called CD33 CAR CD8-1X
# B2: CD33-specific chimeric antigen receptor with CD8 3X spacer (receptor)
# chain: DIQMTQSPSSLSASVGDRVTITCRASESVDNYGISFMNWFQQKPGKAPKLLIYAASNQGSGVPSRFSGSGSGTDFTLTISSLQPDDFATYYCQQSKEVPWTFGQGTKVEIKGGGGSGGGGSGGGGSQVQLVQSGAEVKKPGSSVKVSCKASGYTFTDYNMHWVRQAPGQGLEWIGYIYPYNGGTGYNQKFKSKATITADESTNTAYMELSSLRSEDTAVYYCARGRPAMDYWGQGTLVTVSSKPTTTPAPRPPTPAPTIASQPLSLRPEASRPAAGGAVHTRGLDFASDKPTTTPAPRPPTPAPTIASQPLSLRPEASRPAAGGAVHTRGLDFASDKPTTTPAPRPPTPAPTIASQPLSLRPEACRPAAGGAVHTRGLDFACDIYIWAPLAGTCGVLLLSLVITLYCNHRNKRGRKKLLYIFKQPFMRPVQTTQEEDGCSCRFPEEEEGGCELRVKFSRSADAPAYQQGQNQLYNELNLGRREEYDVLDKRRGRDPEMGGKPRRKNPQEGLYNELQKDKMAEAYSEIGMKGERRRGKGHDGLYQGLSTATKDTYDALHMQALPPR
# notes: Expressed on human T cells; also called CD33 CAR CD8-3X
# B3: CD33-specific chimeric antigen receptor with CD8 3X V2 spacer (receptor)
# chain: B2 chain with S271C, S288C, C365S, C382S
# notes: Nucleofected into human T cells; also called CD33 CAR CD8-3X V2; CD8-3×v2
# B4: CD33-specific chimeric antigen receptor with CD8 2X spacer (receptor)
# chain: DIQMTQSPSSLSASVGDRVTITCRASESVDNYGISFMNWFQQKPGKAPKLLIYAASNQGSGVPSRFSGSGSGTDFTLTISSLQPDDFATYYCQQSKEVPWTFGQGTKVEIKGGGGSGGGGSGGGGSQVQLVQSGAEVKKPGSSVKVSCKASGYTFTDYNMHWVRQAPGQGLEWIGYIYPYNGGTGYNQKFKSKATITADESTNTAYMELSSLRSEDTAVYYCARGRPAMDYWGQGTLVTVSSKPTTTPAPRPPTPAPTIASQPLSLRPEASRPAAGGAVHTRGLDFASDKPTTTPAPRPPTPAPTIASQPLSLRPEACRPAAGGAVHTRGLDFACDIYIWAPLAGTCGVLLLSLVITLYCNHRNKRGRKKLLYIFKQPFMRPVQTTQEEDGCSCRFPEEEEGGCELRVKFSRSADAPAYQQGQNQLYNELNLGRREEYDVLDKRRGRDPEMGGKPRRKNPQEGLYNELQKDKMAEAYSEIGMKGERRRGKGHDGLYQGLSTATKDTYDALHMQALPPR
# notes: Expressed on human T cells; also called CD33 CAR CD8-2X
# B5: CD33-specific chimeric antigen receptor with CD8 4X spacer (receptor)
# chain: DIQMTQSPSSLSASVGDRVTITCRASESVDNYGISFMNWFQQKPGKAPKLLIYAASNQGSGVPSRFSGSGSGTDFTLTISSLQPDDFATYYCQQSKEVPWTFGQGTKVEIKGGGGSGGGGSGGGGSQVQLVQSGAEVKKPGSSVKVSCKASGYTFTDYNMHWVRQAPGQGLEWIGYIYPYNGGTGYNQKFKSKATITADESTNTAYMELSSLRSEDTAVYYCARGRPAMDYWGQGTLVTVSSKPTTTPAPRPPTPAPTIASQPLSLRPEASRPAAGGAVHTRGLDFASDKPTTTPAPRPPTPAPTIASQPLSLRPEASRPAAGGAVHTRGLDFASDKPTTTPAPRPPTPAPTIASQPLSLRPEASRPAAGGAVHTRGLDFASDKPTTTPAPRPPTPAPTIASQPLSLRPEACRPAAGGAVHTRGLDFACDIYIWAPLAGTCGVLLLSLVITLYCNHRNKRGRKKLLYIFKQPFMRPVQTTQEEDGCSCRFPEEEEGGCELRVKFSRSADAPAYQQGQNQLYNELNLGRREEYDVLDKRRGRDPEMGGKPRRKNPQEGLYNELQKDKMAEAYSEIGMKGERRRGKGHDGLYQGLSTATKDTYDALHMQALPPR
# notes: Expressed on human T cells; also called CD33 CAR CD8-4X
# Target: T1, recombinant CD33/Fc protein (UniProt P20138 18-259)
# T1 construct: Staining reagent for flow cytometry; not shown: Fc part not described
# Experiment: flow cytometry, CAR-nucleofected T cells stained with recombinant CD33/Fc; donor #1
# Procedure: (§1) Briefly, CD33-specific CAR vectors were introduced into PBMC via electroporation, using a Sleeping Beauty-based transposon system to mediate genomic integration of the transposons. On day 0, 20 million PBMC were suspended in 100 μL of Amaxa human T cell Nucleofector solution (Cat. no. VPA-1002; Lonza, Basel, Switzerland) mixed with 15 μg of CAR transposon and 5 μg of SB transposase and electroporated. The following day (day 1) cells count and viability were measured followed by flow cytometry to quantify CAR expression. CAR-T cells were stimulated with either γ-irradiated (100 Gy) or mitomycin C treated AaPCs at a 1:1 ratio. The AaPC cells used were K562 cell line expressing CD33 antigen. CD33-CAR-T cells were expanded ex vivo by once weekly stimulation with the AaPCs at a 1:1 ratio. Cultures were maintained in IL-2 (50 IU/ml) and/or IL-21 (30 ng/ml). CD33-specific CAR expression was measured using recombinant CD33/Fc protein staining as detected by multi-parameter flow cytometry.
row,Binder,% CD3+ CAR+
1,B1,50.4%
2,B2,63.5%
3,B3,19.5%
4,B4,29.3%
5,B5,63.6%

# Target: T1, recombinant CD33/Fc protein
# Experiment: flow cytometry, CAR-nucleofected T cells stained with recombinant CD33/Fc; donor #2
# Procedure: as §1
row,Binder,% CD3+ CAR+
1,B1,74.3%
2,B2,80%
3,B3,9.03%
4,B4,82.9%
5,B5,80.7%
